Source: patent US11040011B2 (priority 2016, dated 2021)

Test: Metal meloxicam complex precipitation and dissolution of the precipitate in organic solvents
Assay type: physicochemical
Details: 1:1 process, 20 mM MLX pH 8.2 + 20 mM metal chloride pH 5.5

Substance | MLX not precipitated (% in Supernatant)
Magnesium (II) | 71%
Copper(II) | 17%
